# Test results from paper PMC7699649 (Communications Biology, 2020).
# Read-outs that look alike come from different tables or passages of the source. Non-standard residues stand in square brackets, D forms with d. Residues, ends and D or L forms follow the SMILES beside them.
# Columns and labels:
# HEK293 = format: cell-based, human; conditions: selectivity index = EC50 divided by the MIC
# Method: (§1) HeLa and HEK293 cell lines were purchased from ECACC and cultured in Eagle’s Minimum Essential Media containing glutamine, supplemented with 10% FBS and 1X non-essential amino acids. A549 and Calu-3 cell lines were purchased from ATCC. […] Cytotoxicity was measured by incubating starter cultures of cells for 24 h in a 96 well plate, gently removing the supernatant and replacing it with dilutions of peptides and controls, incubating for a further 24 h and then staining of the cells with the second-generation tetrazolium dye, XTT.
# A549 = format: cell-based; conditions: selectivity index = EC50 divided by the MIC
# Method: as §1
# [1] = MIC in RPMI (value in parentheses)
SMILES,SI HEK293 /EMRSA-15 (HEK293; MIC in Mueller Hinton broth),SI HEK293 /EMRSA-15 (HEK293; [1]),SI A549/EMRSA-15 (A549; MIC in Mueller Hinton broth),SI A549/EMRSA-15 (A549; [1])
CC(C)C[C@@H](NC(=O)[C@@H](Cc1ccc(O)cc1)NC(=O)[C@@H](Cc1c[nH]cn1)NC(=O)[C@H](NC(=O)[C@@H](CC(C)C)NC(=O)[C@@H](C)NC(=O)[C@@H](C)NC(=O)[C@@H](CCCNC(=N)N)NC(=O)CNC(=O)[C@H](NC(=O)[C@@H](Cc1c[nH]cn1)NC(=O)[C@@H](CCCNC(=N)N)NC(=O)CNC(=O)[C@H](NC(=O)[C@@H](Cc1c[nH]cn1)NC(=O)[C@@H](C)NC(=O)[C@@H](C)NC(=O)[C@@H](CCCNC(=N)N)NC(=O)[C@@H](CCCNC(=N)N)NC(=O)[C@@H](Cc1ccccc1)NC(=O)[C@@H](Cc1ccccc1)NC(=O)[C@@H](CO)NC(=O)CNC(=O)[C@@H](Cc1c[nH]c2ccccc12)NC(=O)CN)C(C)C)C(C)C)[C@H](C)O)C(N)=O [D-pleurocidin-KR] (H-G[dW]G[dS][dF][dF][dR][dR][dA][dA][dH][dV]G[dR][dH][dV]G[dR][dA][dA][dL][dT][dH][dY][dL]-NH2; N-terminus assumed),18.2,72.8,28.3,113.0
CC(C)C[C@@H](NC(=O)[C@@H](Cc1ccc(O)cc1)NC(=O)[C@@H](Cc1c[nH]cn1)NC(=O)[C@H](NC(=O)[C@@H](CC(C)C)NC(=O)[C@@H](C)NC(=O)[C@@H](C)NC(=O)[C@@H](CCCCN)NC(=O)CNC(=O)[C@@H](C)NC(=O)[C@@H](Cc1c[nH]cn1)NC(=O)[C@@H](CCCCN)NC(=O)CNC(=O)[C@@H](C)NC(=O)[C@@H](Cc1c[nH]cn1)NC(=O)[C@@H](C)NC(=O)[C@@H](C)NC(=O)[C@@H](CCCCN)NC(=O)[C@@H](CCCCN)NC(=O)[C@@H](Cc1ccccc1)NC(=O)[C@@H](Cc1ccccc1)NC(=O)[C@@H](CO)NC(=O)CNC(=O)[C@@H](Cc1c[nH]c2ccccc12)NC(=O)CN)[C@H](C)O)C(N)=O [D-pleurocidin-VA] (H-G[dW]G[dS][dF][dF][dK][dK][dA][dA][dH][dA]G[dK][dH][dA]G[dK][dA][dA][dL][dT][dH][dY][dL]-NH2; N-terminus assumed),6.8,27.2,> 7.8,> 31.2
CC(C)C[C@@H](NC(=O)[C@@H](Cc1ccc(O)cc1)NC(=O)[C@@H](Cc1c[nH]cn1)NC(=O)[C@H](NC(=O)[C@@H](CC(C)C)NC(=O)[C@@H](C)NC(=O)[C@@H](C)NC(=O)[C@@H](CCCCN)NC(=O)CNC(=O)[C@H](NC(=O)[C@@H](Cc1c[nH]cn1)NC(=O)[C@@H](CCCCN)NC(=O)CNC(=O)[C@H](NC(=O)[C@@H](Cc1c[nH]cn1)NC(=O)[C@@H](C)NC(=O)[C@@H](C)NC(=O)[C@@H](CCCCN)NC(=O)[C@@H](CCCCN)NC(=O)[C@@H](Cc1ccccc1)NC(=O)[C@@H](Cc1ccccc1)NC(=O)[C@@H](CO)NC(=O)CNC(=O)[C@@H](Cc1c[nH]c2ccccc12)NC(=O)CN)C(C)C)C(C)C)[C@H](C)O)C(N)=O [D-pleurocidin] (H-G[dW]G[dS][dF][dF][dK][dK][dA][dA][dH][dV]G[dK][dH][dV]G[dK][dA][dA][dL][dT][dH][dY][dL]-NH2; N-terminus assumed),3.8,61.4,5.0,79.3
